Consider two molecules from publication doi:10.1101/2021.07.30.454553 (bioRxiv, 2021).

The chains behind the UniProt entries cited, without tags or fusion partners. Where a name states a change or a piece, a line headed by the entry shows the natural chain unless it says otherwise. Residues count along the entry.
UniProt P33176: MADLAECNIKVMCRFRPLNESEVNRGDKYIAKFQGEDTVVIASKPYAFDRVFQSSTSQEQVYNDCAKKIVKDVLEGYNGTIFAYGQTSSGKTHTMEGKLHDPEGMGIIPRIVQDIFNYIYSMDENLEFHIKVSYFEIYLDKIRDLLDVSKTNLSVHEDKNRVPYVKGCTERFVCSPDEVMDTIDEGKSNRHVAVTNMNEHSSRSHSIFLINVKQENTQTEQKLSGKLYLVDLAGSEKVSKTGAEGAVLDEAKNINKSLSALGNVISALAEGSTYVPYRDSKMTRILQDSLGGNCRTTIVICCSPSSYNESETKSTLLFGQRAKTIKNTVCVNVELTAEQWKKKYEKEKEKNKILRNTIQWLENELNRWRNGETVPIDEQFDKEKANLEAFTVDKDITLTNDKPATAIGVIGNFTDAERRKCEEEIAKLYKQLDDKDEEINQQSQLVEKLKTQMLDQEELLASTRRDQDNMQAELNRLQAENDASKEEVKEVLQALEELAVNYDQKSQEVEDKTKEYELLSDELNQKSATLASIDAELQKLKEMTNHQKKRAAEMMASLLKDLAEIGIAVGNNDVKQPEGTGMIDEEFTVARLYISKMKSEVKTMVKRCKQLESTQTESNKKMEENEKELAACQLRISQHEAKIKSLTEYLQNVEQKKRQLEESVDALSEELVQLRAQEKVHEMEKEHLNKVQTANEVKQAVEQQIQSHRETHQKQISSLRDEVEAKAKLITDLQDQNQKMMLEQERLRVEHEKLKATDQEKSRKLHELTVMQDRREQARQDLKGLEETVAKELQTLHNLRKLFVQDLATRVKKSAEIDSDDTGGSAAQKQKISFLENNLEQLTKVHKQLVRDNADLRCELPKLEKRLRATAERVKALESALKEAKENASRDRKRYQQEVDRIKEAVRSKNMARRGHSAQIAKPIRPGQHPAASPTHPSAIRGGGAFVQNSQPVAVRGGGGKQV
KIF5B^1-490: residues 1-490 of P33176
UniProt Q8IXI2, residues 1-592: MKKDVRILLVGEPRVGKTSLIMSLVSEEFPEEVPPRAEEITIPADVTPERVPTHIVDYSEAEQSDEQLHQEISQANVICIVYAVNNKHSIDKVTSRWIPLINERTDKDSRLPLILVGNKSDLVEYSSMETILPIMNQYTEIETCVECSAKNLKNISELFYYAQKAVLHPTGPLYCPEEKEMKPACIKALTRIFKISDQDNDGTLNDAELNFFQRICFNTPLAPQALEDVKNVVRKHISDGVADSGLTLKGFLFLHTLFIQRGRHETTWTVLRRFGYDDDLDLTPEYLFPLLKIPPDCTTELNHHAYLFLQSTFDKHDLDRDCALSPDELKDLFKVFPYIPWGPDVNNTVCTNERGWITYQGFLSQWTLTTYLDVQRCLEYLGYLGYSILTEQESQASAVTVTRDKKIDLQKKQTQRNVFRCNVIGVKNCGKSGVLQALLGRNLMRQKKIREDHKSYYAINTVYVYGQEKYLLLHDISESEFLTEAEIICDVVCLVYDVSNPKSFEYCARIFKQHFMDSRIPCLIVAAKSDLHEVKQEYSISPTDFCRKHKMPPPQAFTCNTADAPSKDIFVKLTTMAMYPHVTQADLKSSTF

Test in all cases: co-IP
Assay [1] addresses T1, full-length TRAK2^1-914 (human) (UniProt O60296).
T1 sequence (chain, LD655 dye on the SNAP tag (imaging assays)): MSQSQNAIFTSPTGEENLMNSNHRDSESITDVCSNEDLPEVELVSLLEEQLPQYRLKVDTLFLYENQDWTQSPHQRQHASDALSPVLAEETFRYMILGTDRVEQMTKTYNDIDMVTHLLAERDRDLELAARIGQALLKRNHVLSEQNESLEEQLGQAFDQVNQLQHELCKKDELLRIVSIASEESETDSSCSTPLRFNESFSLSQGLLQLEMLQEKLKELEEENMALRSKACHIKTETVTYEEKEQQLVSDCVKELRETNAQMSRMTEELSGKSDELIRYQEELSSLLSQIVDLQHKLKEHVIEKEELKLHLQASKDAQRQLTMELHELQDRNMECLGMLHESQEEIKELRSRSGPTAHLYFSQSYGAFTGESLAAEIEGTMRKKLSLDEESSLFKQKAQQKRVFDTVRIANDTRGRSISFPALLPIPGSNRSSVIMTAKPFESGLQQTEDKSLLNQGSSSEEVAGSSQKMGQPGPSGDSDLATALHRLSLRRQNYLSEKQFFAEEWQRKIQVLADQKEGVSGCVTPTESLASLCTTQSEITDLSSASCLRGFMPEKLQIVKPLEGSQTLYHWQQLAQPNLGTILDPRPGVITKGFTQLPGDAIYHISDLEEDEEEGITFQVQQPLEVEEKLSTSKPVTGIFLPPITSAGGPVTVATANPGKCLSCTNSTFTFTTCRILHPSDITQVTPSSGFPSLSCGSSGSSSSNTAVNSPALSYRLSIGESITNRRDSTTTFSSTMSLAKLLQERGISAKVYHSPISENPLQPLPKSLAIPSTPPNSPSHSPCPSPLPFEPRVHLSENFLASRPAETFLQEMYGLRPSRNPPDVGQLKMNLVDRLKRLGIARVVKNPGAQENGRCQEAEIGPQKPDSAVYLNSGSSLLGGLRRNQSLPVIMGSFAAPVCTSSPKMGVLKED

Another assay deals with KIF5B^1-490 (human) (UniProt P33176).
For assay [2], the target named is full-length human kinesin-1 heavy chain (KIF5B) (human) (UniProt P33176).
Assay [3] has the same target. The source holds these as a separate data set.

Like-named read-outs stand apart in the source and are kept apart here. Results are given in words; binding and its absence hold for the method and conditions named. Some entries that bind do so weakly or less than the wild type.

Turning to “Miro1^1-592 (from UniProt Q8IXI2 1-592) (domain or fragment)”, the binding entry in assay [1] was “binds”; with KIF5B^1-490 (human) it was “no binding”; in assay [2], “binds”.

B1: TRAK2^1-360 (domain or fragment, human, UniProt O60296 1-360, looked up)
chain: MSQSQNAIFTSPTGEENLMNSNHRDSESITDVCSNEDLPEVELVSLLEEQLPQYRLKVDTLFLYENQDWTQSPHQRQHASDALSPVLAEETFRYMILGTDRVEQMTKTYNDIDMVTHLLAERDRDLELAARIGQALLKRNHVLSEQNESLEEQLGQAFDQVNQLQHELCKKDELLRIVSIASEESETDSSCSTPLRFNESFSLSQGLLQLEMLQEKLKELEEENMALRSKACHIKTETVTYEEKEQQLVSDCVKELRETNAQMSRMTEELSGKSDELIRYQEELSSLLSQIVDLQHKLKEHVIEKEELKLHLQASKDAQRQLTMELHELQDRNMECLGMLHESQEEIKELRSRSGPTAHL
modifications: LD555 or LD655 dye on the SNAP tag (imaging assays)
Consider B1, for which, in assay [3], the binding result was “no binding (condition: without MAP7)”.
